Data as given in article PMC5738801.
These are yes or no findings as the source states them, for the method shown. Binding seen in cells or lysates may run through a third protein. Some binding calls cover weakened binding; strength is not graded here.

By UniProt entry, the sequences of proteins in these tests, tags left out.
UniProt P14618: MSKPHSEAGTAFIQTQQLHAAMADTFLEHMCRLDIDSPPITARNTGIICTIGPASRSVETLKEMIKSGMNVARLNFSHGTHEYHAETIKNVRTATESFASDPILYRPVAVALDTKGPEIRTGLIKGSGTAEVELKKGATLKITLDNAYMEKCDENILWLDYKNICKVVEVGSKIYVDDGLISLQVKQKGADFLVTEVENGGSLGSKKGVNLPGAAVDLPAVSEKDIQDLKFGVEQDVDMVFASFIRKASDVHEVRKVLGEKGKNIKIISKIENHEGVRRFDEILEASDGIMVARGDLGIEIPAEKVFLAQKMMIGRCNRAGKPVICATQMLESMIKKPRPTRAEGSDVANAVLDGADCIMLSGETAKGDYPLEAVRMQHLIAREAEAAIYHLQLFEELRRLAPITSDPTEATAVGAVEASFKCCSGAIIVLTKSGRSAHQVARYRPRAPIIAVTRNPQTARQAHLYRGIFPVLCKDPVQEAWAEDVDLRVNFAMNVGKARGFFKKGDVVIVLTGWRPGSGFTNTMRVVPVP
UniProt P49841: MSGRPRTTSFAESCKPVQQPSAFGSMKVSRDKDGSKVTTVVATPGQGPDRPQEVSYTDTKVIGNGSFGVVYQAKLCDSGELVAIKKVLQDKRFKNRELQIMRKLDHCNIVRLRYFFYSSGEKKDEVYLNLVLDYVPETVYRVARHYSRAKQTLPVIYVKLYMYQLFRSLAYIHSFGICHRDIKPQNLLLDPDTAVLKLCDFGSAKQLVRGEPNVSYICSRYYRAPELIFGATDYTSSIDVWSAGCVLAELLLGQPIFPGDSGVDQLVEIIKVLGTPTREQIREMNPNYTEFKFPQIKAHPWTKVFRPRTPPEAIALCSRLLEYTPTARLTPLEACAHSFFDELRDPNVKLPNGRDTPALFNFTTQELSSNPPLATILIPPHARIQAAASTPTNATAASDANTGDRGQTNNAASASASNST

Biological target: PKM2 (Huh7 cells) (not stated (Huh7 cells; endogenous or transfected not told)) (UniProt P14618)
Assay: co-IP; co-IP for HSP90, PKM2 and GSK-3β from Huh7 cells; Protein G beads, 4 °C

Substance: Glycogen synthase kinase-3β (Huh7 cells) (from UniProt P49841 1-420) (enzyme)
- binding: binds
